Measured values taken from PubChem BioAssay AID445 (National Center for Advancing Translational Sciences (NCATS), 2006).
This is one part of the list. The main result of the screen is listed elsewhere. These columns were measured beside it and carry no call. Compounds called inactive in the main read-out are mostly missing here. The note in brackets gives the kind of curve behind each potency; many fits are weak.

Experiment: IkB Signaling
Settings: ABC-DLBCL IkBa-CBG/CBR dual luciferase ratio (green luciferase fused to IkBa over red control in OCI-Ly3 lymphoma cells), 4 h; measured here: control luc red channel unless noted
Summary of the method: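 Luminescence ratio of IκBα-fused green versus native red beetle luciferase in OCI-Ly3 cells, 4 h post-doxycycline with compound; red signal alone, scaled from basal (0%) to zero light (-100%), flagged nonspecific or cytotoxic effects.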

Structure (SMILES)	AC50
CCC(=O)N1CCc2cc(S(=O)(=O)CCC(=O)N3CCN(c4cccc(C)c4)C(C)C3)ccc21 (centres undefined)	12.6 µM [falling, partial curve]
Cc1ccccc1Nc1c(-c2ccsc2)nc2c(C)cccn12	20 µM [falling, partial curve]
O=C(NCc1cccc(Cl)c1)c1cccn1-c1nnc(N2CCCC2)s1	15.8 µM [falling, partial curve]
O=C(CN1C(=O)NC2(CCCC2)C1=O)Nc1nc(-c2ccc(F)cc2)cs1	15.8 µM [falling, partial curve]
Cc1ccccc1C(=O)Nc1nnc(SCc2cc(=O)c3c(C)ccc(C)c3[nH]2)s1	0.794 µM [falling, full curve]
CC1CCN(S(=O)(=O)c2cc(C(=O)NCc3ccc(F)cc3)n(C)c2)CC1	10 µM [falling, partial curve]
COc1cccc(COC(=O)c2ccc(-c3nnn(Cc4ccccc4)n3)cc2)c1	0.398 µM [rising, full curve, poor fit]
CCc1ccccc1NS(=O)(=O)c1ccc2[nH]cc(C(=O)NCc3ccco3)c(=O)c2c1	15.8 µM [falling, partial curve]
CC(C)c1ccc(C(=O)Nc2cccc3cccnc23)cc1	0.398 µM [rising, full curve]
CC(=O)c1ccc(NC(=O)CCc2c(C)nn(-c3ccc4nncn4n3)c2C)cc1	0.02 µM [rising, full curve, poor fit]
CSc1ccc(CCNC(=O)c2cc3n(n2)CCCN(Cc2ccc(C)cc2)C3=O)cc1	12.6 µM [falling, partial curve]
O=C(CCCSc1nc(-c2ccco2)cc(C(F)(F)F)n1)Nc1ccc2c(c1)OCO2	25.1 µM [falling, single point]
O=C(Nc1sc2c(c1C(=O)NCc1ccccc1)CCCC2)c1cc(=O)c2cc(Cl)ccc2o1	39.8 µM [falling, single point]
CCc1ccccc1N1CC(c2nc3ccccc3n2Cc2cccc(C)c2)CC1=O (centres undefined)	20 µM [falling, partial curve]
CCOc1ccc(S(=O)(=O)NCCc2sc(-c3ccc(C)cc3)nc2C)cc1	0.316 µM [falling, full curve]
COc1ccc(Cl)c(N2CCN(CCCNC(=O)Nc3ccc(C)cc3)CC2)c1	15.8 µM [falling, partial curve]
O=C(Nc1cccnc1Cl)c1cc(-c2ccc(Cl)cc2)on1	3.98 µM [falling, partial curve, poor fit]
O=c1c2ccccc2n2c(-c3ccc(F)c(F)c3)nnc2n1CCc1ccccc1	39.8 µM [falling, single point]
CCOC(=O)c1c(S(=O)(=O)N2CCCC(C(=O)Nc3ccc(C)cc3C)C2)c(C)n(CC)c1C (centres undefined)	3.98 µM [falling, partial curve]
O=C(CSc1nnc(Cc2cccs2)n1C1CCCCC1)N1CCCc2ccccc21	6.31 µM [falling, partial curve]
CCOc1ccc(S(=O)(=O)Nc2ccc3c(c2)c(C(C)=O)c(C)n3S(=O)(=O)c2ccc(OCC)cc2)cc1	10 µM [falling, partial curve]
CCOC(=O)C1CCN(C(=O)CSc2c3c(nc4ccc(Cl)cc24)CCCC3)CC1	10 µM [falling, partial curve]

Structure (SMILES)	AC50
O=C(NCc1ccc(Cl)cc1)C(=O)NCC(c1ccco1)S(=O)(=O)c1cccs1 (centres undefined)	25.1 µM [falling, single point]
CCCCNC(=O)c1ccc2c(=O)n(-c3ccccc3)c(=O)[nH]c2c1	6.31 µM [falling, partial curve]
CSc1ccc(S(=O)(=O)NCCOc2ccccc2C)cc1	7.94 µM [falling, partial curve]
c1ccc(OCCSc2nnnn2-c2ccccc2)cc1	20 µM [falling, single point]
COc1cc(OC)cc(C(=O)Nc2ccc3nc(N4CCC(C)CC4)cc(C)c3c2)c1	3.98 µM [falling, full curve, poor fit]
O=C(CCNc1ccc(Cl)c(C(F)(F)F)c1)c1ccco1	15.8 µM [falling, partial curve]
Cc1noc(C)c1S(=O)(=O)N1CCC(C(=O)N2CCN(c3ccccc3Cl)CC2)CC1	20 µM [falling, partial curve]
Cc1ccc2c(CC(=O)Nc3cc(C(F)(F)F)ccc3Cl)coc2c1C	20 µM [falling, partial curve]
CCC12CN3CC(CC)(CN(C1)C3c1ccc(OCc3ccccc3)cc1)C2=O (centres undefined)	7.94 µM [falling, partial curve]
O=S(=O)(c1cccs1)N1CCC(Cc2ccccc2)CC1	15.8 µM [falling, partial curve]
O=C(Cn1nnc2sc3c(c2c1=O)CCCC3)Nc1ccc(F)c(Cl)c1	5.01 µM [falling, partial curve]
COc1cccc(NC(CNS(=O)(=O)c2ccc(C)cc2)c2ccccc2)c1 (centres undefined)	15.8 µM [falling, partial curve]
CCN1C(=O)c2ccccc2Sc2ccc(NC(=O)c3ccc(C)c(F)c3)cc21	12.6 µM [falling, partial curve]
O=C1/C(=C/Nc2ccc3c(c2)OCO3)CCc2ccccc21	7.94 µM [falling, partial curve]
CCCS(=O)(=O)NCCc1csc2nc(-c3ccc(OC)cc3)nn12	3.98 µM [rising, partial curve]
Cc1cc(-c2ccc(C)c(S(=O)(=O)NCc3ccc(Cl)cc3)c2)on1	20 µM [falling, partial curve]
N#Cc1ccccc1NC(=O)CSc1nnc(-c2ccccc2)n1-c1ccccc1	39.8 µM [falling, single point]
CCc1c(C)nc2nncn2c1Nc1ccc(C)c(F)c1	25.1 µM [falling, partial curve, poor fit]
COc1ccc(-c2cc(C(=O)N3CC4(C)CC3CC(C)(C)C4)no2)cc1OC (centres undefined)	5.01 µM [falling, partial curve]
COc1ccccc1N(CC(=O)NCCSCc1ccc(Cl)cc1)S(C)(=O)=O	39.8 µM [falling, single point]
COc1cccc(CNC(=O)c2c(O)nc3ccccn3c2=O)c1	39.8 µM [falling, single point]
CCOC(=O)CN1C(=O)C(C)(C)Oc2ccc(C(=O)Nc3ccccc3)cc21	25.1 µM [falling, partial curve]

Structure (SMILES)	AC50
CCOc1ccc(N2CC(c3nc4ccccc4n3CC(C)C)CC2=O)cc1 (centres undefined)	12.6 µM [falling, partial curve]
COc1cc(-c2noc(-c3ccc(NCCc4ccccc4)c([N+](=O)[O-])c3)n2)cc(OC)c1OC	7.94 µM [falling, partial curve]
N#CC(C#N)=c1ccc2c(c1)NC1(CCCCC1)N=2	3.16 µM [rising, full curve] [measured here: IkB-luc green channel]
Cc1ccc(C)c(N2CCN(C(=O)c3ccc4c(Cl)c5c(nc4c3)CCCC5)CC2)c1	25.1 µM [falling, partial curve]
O=c1oc2ccc(Br)cc2cc1-c1nc(-c2ccccc2)no1	0.158 µM [falling, full curve, poor fit]
CC(C)OCCCN1C(=O)c2[nH]nc(-c3ccccc3O)c2C1c1cccc(Cl)c1 (centres undefined)	20 µM [falling, partial curve]
Cc1cccc(NC(=O)CSc2nc3c(oc4ccccc43)c(=O)n2C(C)C)c1	39.8 µM [falling, single point]
CC(C)c1nnc(NC(=O)CSc2nc3ccccc3s2)s1	25.1 µM [falling, partial curve]
O=c1c2cnn(-c3ccccc3)c2nc(-c2ccco2)n1-c1ccccc1	7.94 µM [falling, partial curve]
COCCNC(=O)CCCn1c(SCC(=O)Nc2cccc(C)c2)nc2c(sc3ccccc32)c1=O	12.6 µM [falling, partial curve]
O=C(c1ccc(CNS(=O)(=O)c2ccccc2)cc1)N1CCN(c2ccccn2)CC1	15.8 µM [falling, partial curve]
Cc1cccc(N2CCN(CCCNc3ncnc4onc(-c5ccc(F)cc5)c34)CC2C)c1 (centres undefined)	12.6 µM [falling, partial curve]
O=C(CCNS(=O)(=O)c1ccc2c(c1)CCN2C(=O)C1CC1)Nc1ccc(OC(F)(F)F)cc1	0.1 µM [falling, full curve]
COc1cccc(C(=O)Nc2ccc3nc(SCCOc4ccccc4)sc3c2)c1	0.501 µM [falling, full curve]
CCc1ccc2oc(-c3cc(NC(=O)c4cccs4)ccc3Cl)nc2c1	20 µM [falling, single point]
COC(=O)C1CCN(C(=O)COc2ccc(Cl)cc2)CC1	2 µM [falling, full curve]
COC(=O)CN1C(=O)CSc2ccc(S(=O)(=O)Nc3ccc(C)c(Cl)c3)cc21	39.8 µM [falling, single point]
CCOCC(=O)Nc1nc2ccc(C)cc2s1	12.6 µM [falling, partial curve]
CCCCCOc1ccc(/C=C/C(=O)Nc2sc3c(c2C(=O)OCC)CCC3)cc1OC	15.8 µM [falling, single point]
CNC(=O)c1cnc2sc(N3CCC(C)CC3)nn2c1=O	39.8 µM [rising, single point]

4 entries out of the list, arranged by SMILES length, falling:
Structure (SMILES)	AC50
COc1cc(-c2noc(-c3ccc(NCCc4ccccc4)c([N+](=O)[O-])c3)n2)cc(OC)c1OC	7.94 µM [falling, partial curve]
O=c1oc2ccc(Br)cc2cc1-c1nc(-c2ccccc2)no1	0.158 µM [falling, full curve, poor fit]
N#CC(C#N)=c1ccc2c(c1)NC1(CCCCC1)N=2	3.16 µM [rising, full curve] [measured here: IkB-luc green channel]
CCOCC(=O)Nc1nc2ccc(C)cc2s1	12.6 µM [falling, partial curve]
